Source: patent US20190192636A1
Results are given in words; binding and its absence hold for the method and conditions named. Some results given as binding are weak or reduced against the parent protein; the word gives no strength.

The chains behind the UniProt entries cited, without tags or fusion partners. Where a name states a change or a piece, a line headed by the entry shows the natural chain unless it says otherwise.
UniProt Q16787: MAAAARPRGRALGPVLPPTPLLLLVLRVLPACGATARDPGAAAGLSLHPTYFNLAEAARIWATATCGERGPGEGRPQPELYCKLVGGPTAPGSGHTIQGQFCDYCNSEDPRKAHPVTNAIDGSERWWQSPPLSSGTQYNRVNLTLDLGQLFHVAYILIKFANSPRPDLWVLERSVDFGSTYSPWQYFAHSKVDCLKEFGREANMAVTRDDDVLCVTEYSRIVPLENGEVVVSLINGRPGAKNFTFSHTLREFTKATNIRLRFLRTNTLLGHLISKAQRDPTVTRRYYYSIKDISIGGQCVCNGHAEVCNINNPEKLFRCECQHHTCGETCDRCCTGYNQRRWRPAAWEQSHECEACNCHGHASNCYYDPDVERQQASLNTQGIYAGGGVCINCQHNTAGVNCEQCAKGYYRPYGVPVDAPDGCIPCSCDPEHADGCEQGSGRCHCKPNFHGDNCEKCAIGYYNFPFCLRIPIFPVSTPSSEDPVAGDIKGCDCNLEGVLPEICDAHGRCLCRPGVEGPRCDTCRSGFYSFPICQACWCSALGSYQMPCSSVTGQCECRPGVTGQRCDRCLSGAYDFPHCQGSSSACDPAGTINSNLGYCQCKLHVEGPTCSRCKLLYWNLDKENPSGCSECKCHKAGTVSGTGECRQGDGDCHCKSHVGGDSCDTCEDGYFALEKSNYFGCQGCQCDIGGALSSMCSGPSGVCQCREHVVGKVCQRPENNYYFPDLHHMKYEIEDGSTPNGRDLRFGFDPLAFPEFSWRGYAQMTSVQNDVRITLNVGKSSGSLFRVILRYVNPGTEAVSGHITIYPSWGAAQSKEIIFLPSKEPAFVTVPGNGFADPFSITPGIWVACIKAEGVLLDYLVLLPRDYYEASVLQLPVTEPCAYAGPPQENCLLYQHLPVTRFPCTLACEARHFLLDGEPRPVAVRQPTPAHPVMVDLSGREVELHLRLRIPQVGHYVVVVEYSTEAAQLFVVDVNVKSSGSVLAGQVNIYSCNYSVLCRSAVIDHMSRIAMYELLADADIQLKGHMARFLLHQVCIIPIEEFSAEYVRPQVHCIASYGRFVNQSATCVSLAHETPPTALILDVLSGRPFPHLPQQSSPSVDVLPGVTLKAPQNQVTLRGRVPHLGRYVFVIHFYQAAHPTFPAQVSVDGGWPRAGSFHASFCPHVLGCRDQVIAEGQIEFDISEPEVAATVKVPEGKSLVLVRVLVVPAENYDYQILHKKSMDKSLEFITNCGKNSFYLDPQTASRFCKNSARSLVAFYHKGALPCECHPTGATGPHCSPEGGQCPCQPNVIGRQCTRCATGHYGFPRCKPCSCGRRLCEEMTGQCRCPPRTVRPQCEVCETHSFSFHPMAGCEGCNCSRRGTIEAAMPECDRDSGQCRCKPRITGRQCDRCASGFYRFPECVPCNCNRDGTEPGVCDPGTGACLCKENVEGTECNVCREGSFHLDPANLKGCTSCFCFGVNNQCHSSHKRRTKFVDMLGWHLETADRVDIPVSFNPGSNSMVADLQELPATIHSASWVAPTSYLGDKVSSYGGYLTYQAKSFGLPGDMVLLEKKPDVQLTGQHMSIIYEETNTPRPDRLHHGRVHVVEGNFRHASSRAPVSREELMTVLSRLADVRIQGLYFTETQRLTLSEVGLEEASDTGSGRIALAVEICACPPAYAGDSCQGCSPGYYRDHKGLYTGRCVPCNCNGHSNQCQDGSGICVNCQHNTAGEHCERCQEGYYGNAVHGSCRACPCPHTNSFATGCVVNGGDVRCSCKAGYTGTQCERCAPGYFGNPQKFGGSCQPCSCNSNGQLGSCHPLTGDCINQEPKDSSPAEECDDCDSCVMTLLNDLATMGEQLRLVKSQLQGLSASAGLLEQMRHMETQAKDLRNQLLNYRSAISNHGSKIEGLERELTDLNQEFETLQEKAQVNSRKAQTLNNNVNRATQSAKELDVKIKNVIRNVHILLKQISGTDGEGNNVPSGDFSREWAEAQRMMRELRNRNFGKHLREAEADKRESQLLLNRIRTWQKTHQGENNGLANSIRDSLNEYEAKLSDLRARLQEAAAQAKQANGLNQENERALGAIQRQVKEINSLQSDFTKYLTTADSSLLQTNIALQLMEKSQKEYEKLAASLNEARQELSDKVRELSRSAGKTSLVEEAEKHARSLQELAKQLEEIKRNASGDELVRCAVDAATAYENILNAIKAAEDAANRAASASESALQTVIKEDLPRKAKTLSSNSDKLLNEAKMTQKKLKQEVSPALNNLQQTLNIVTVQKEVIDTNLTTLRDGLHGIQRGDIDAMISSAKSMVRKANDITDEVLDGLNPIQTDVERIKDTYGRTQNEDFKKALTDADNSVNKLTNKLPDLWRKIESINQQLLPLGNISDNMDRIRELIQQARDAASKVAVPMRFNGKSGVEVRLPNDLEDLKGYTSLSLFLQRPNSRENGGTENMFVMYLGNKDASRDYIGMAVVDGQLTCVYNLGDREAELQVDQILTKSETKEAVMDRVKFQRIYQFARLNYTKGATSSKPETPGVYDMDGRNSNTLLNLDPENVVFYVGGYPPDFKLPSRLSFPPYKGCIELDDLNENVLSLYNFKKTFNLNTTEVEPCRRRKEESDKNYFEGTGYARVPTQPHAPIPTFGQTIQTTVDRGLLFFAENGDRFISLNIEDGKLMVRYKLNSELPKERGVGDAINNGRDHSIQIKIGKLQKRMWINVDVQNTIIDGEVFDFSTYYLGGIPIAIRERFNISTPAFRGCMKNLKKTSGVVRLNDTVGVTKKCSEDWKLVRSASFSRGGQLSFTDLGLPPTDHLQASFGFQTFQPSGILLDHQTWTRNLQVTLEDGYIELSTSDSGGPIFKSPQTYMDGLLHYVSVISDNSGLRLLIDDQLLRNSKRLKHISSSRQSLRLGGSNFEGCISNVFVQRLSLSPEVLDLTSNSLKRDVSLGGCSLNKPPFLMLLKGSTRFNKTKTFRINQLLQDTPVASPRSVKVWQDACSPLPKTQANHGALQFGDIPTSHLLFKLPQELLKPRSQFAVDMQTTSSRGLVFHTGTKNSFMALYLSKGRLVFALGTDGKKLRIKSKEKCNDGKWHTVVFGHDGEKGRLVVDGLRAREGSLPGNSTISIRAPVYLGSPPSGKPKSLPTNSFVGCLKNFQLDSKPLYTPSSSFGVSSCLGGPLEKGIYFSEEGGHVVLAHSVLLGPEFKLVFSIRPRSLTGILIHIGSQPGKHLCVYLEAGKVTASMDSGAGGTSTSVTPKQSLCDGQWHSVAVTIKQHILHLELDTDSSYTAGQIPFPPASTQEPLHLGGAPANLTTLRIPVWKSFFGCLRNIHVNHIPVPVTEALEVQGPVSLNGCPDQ
UniProt Q02388: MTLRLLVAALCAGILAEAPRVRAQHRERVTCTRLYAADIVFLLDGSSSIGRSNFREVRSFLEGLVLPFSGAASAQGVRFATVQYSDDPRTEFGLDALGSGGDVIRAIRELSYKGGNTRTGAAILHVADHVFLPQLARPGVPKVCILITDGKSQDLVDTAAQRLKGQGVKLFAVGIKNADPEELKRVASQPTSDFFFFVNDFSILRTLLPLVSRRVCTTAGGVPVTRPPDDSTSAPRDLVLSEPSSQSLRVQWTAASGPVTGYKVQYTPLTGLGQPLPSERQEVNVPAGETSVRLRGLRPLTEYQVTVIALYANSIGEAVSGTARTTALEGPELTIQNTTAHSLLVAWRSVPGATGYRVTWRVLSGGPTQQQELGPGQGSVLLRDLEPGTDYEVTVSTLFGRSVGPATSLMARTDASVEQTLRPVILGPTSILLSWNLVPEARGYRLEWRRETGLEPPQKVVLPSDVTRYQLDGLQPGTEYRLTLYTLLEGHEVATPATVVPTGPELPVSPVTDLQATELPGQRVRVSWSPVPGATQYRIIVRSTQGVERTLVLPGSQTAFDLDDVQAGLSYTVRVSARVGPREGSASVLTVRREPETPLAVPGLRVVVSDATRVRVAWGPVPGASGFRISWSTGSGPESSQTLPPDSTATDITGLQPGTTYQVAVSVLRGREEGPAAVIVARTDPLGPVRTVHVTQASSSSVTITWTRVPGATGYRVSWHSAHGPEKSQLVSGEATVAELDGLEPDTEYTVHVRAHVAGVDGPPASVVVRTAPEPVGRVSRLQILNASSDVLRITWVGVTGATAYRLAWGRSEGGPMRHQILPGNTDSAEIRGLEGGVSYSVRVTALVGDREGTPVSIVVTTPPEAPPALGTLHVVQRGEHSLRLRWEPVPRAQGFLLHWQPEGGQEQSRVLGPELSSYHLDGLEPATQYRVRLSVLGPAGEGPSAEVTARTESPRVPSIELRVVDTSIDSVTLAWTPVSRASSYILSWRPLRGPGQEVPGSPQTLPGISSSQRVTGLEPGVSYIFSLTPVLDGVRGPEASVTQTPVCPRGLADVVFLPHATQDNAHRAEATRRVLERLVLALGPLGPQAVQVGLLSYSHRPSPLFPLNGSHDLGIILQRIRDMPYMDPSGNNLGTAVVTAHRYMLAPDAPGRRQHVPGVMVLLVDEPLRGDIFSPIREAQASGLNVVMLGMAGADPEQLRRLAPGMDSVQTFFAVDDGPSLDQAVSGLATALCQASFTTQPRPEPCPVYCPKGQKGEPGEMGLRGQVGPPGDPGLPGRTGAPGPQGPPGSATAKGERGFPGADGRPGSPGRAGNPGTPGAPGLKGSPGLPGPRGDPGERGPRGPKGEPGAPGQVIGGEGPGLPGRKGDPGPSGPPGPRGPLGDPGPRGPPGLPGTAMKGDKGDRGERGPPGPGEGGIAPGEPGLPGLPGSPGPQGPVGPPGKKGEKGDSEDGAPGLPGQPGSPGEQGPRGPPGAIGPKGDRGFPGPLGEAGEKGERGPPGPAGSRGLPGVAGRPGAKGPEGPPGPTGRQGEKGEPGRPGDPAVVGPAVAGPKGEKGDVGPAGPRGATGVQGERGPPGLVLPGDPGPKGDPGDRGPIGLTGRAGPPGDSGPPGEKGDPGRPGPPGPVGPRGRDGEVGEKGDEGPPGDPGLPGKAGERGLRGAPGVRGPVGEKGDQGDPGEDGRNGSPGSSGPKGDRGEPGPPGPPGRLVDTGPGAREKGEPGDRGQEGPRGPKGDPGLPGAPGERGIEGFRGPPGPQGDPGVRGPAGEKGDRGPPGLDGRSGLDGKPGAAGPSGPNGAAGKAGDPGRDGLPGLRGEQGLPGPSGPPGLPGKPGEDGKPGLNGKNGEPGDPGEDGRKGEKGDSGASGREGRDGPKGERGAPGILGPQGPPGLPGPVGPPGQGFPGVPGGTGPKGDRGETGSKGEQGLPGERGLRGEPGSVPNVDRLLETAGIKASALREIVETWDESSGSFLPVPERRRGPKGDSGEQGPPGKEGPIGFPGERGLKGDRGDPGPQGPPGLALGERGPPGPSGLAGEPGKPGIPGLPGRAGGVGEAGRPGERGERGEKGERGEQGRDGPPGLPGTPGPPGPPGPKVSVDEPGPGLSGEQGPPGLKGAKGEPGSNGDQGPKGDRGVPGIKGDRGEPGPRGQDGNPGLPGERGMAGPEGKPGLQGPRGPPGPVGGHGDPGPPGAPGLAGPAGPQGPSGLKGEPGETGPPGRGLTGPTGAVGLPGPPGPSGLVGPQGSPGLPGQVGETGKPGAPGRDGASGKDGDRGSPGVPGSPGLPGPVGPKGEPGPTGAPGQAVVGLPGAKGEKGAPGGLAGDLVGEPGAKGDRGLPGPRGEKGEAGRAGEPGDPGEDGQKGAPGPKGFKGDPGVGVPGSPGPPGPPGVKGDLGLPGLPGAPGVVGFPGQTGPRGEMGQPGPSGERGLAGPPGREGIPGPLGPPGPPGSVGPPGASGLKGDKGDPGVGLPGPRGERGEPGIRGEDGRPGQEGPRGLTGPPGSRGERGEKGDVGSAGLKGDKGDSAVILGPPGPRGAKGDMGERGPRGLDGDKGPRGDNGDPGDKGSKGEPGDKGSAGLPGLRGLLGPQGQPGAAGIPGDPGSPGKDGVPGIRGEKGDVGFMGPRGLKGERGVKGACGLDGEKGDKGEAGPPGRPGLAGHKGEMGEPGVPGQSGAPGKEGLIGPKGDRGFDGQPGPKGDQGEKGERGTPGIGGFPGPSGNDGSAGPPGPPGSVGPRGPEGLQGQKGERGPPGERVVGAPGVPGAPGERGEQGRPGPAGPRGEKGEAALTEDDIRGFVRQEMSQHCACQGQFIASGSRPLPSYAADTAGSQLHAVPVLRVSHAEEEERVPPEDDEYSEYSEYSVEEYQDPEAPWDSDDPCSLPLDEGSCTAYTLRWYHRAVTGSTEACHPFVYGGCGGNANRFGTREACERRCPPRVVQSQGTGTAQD

Experiments:
Laminin 332 [1] = molecular target: Laminin 332 (UniProt Q16787); assay: ELISA, Lam332-coated wells, supernatants
Laminin 332 [2] = molecular target: Laminin 332 (UniProt Q16787); assay: ELISA, Lam332-coated wells, bound C7 detected with anti-NC1 antibody (TR9 = HA-tagged C7)
Laminin 332 [3] = molecular target: Laminin 332 (UniProt Q16787); assay: ELISA, Lam332-coated wells, supernatants of TR9 (HA-tagged C7), fNC1 detection, OD450
Laminin 332 [4] = molecular target: Laminin 332 (UniProt Q16787); assay: ELISA, Lam332- or BSA-coated wells, conditioned supernatants (INXN-2002)
Laminin 332 [5] = molecular target: Laminin 332 (UniProt Q16787); assay: ELISA, Lam332-coated wells, supernatants of TR11, TR12.1, TR13
Laminin 332 [6] = molecular target: Laminin 332 (UniProt Q16787); assay: ELISA, Lam332-coated wells, bound C7 detected with anti-NC1 antibody
Laminin 332 [7] = molecular target: Laminin 332 (UniProt Q16787); assay: ELISA, Lam332-coated wells, supernatants of TR8, TR10, ER1, fNC1 detection, OD450
Laminin 332 [8] = molecular target: Laminin 332 (UniProt Q16787); assay: ELISA, Lam332-coated wells, supernatants of TR11, TR12.1, TR13, α-fNC1 detection, OD450
Laminin 332 [9] = molecular target: Laminin 332 (UniProt Q16787); assay: ELISA, Lam332- or BSA-coated wells, TR8 supernatants, NC1-specific antibody + HRP secondary, OD450
Laminin 332 [10] = molecular target: Laminin 332 (UniProt Q16787); assay: ELISA, Lam332- or BSA-coated wells, OD450; COL7 purified from CHO-DG44 cells

binding (Laminin 332 [1]) | binding (Laminin 332 [2]) | binding (Laminin 332 [3]) | binding (Laminin 332 [4]) | binding (Laminin 332 [5]) | binding (Laminin 332 [6]) | binding (Laminin 332 [7]) | binding (Laminin 332 [8]) | binding (Laminin 332 [9]) | binding (Laminin 332 [10]) | Substance
binds | binds | binds | – | – | – | – | – | – | – | HA-tagged C7 expressed by TR9 HA-GM-HDFs (LV-HA-COL7) (from UniProt Q02388 17-2944)
binds | – | – | binds | binds | binds | binds | binds | binds | binds | Type VII collagen (C7) (from UniProt Q02388 17-2944)
